Data as given in PubChem BioAssay AID1159584 (Peter MacCallum Cancer Centre, 2016).

- Purpose: 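Knock-downs that harm CDH1-null cells more than parental MCF10A cells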 (primary screen)
- System: human MCF10A breast epithelial cells, parental and CDH1-null
- Knock-down reagent: siRNA against human genes
- Read-out: 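ATP luminescence (CellTiter-Glo) viability per line relative to mean mock wells over all plates, and the ratio of CDH1-null to parental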
- Direction: CDH1-null / parental viability ratio: higher = CDH1-null cells survive relatively better than parental; CDH1-null viability vs mock: higher = more viable CDH1-null cells
The deposit covers about 18,000 reagents; this is a part drawn at random. Not all columns of the deposit are shown. Not stated in the record: the amount of reagent, the time to read-out.

gene | CDH1-null / parental viability ratio | CDH1-null viability vs mock (fraction of mock)
RBBP7 (RB binding protein 7, chromatin remodeling factor) | 1.28 | 0.95
OAZ1 (ornithine decarboxylase antizyme 1) | 0.95 | 0.92
CYP51A1 (cytochrome P450 family 51 subfamily A member 1) | 0.93 | 0.56
RPGR (retinitis pigmentosa GTPase regulator) | 1.02 | 0.92
CHKB (choline kinase beta) | 0.98 | 0.98
WDR70 (WD repeat domain 70) | 1.26 | 0.86
KANSL2 (KAT8 regulatory NSL complex subunit 2) | 1.1 | 0.86
XKR7 (XK related 7) | 0.93 | 1.04
LCE5A (late cornified envelope 5A) | 0.76 | 0.62
INTS11 (integrator complex subunit 11) | 0.95 | 0.59
BRPF3 (bromodomain and PHD finger containing 3) | 0.98 | 0.94
IGF2-AS (IGF2 antisense RNA) | 0.87 | 0.78
LDAF1 (lipid droplet assembly factor 1) | 0.92 | 0.89
OXR1 (oxidation resistance 1) | 1.08 | 0.91
SHROOM2 (shroom family member 2) | 1.08 | 0.79
ACE2 (angiotensin converting enzyme 2) | 1.24 | 0.82
LINC02872 (long independently transcribed non-coding RNA 2872) | 1.05 | 0.78
FITM2 (fat storage inducing transmembrane protein 2) | 1.08 | 0.8
FBXW11 (F-box and WD repeat domain containing 11) | 1.09 | 0.94
CCDC51 (coiled-coil domain containing 51) | 0.71 | 0.64
MYLK (myosin light chain kinase) | 0.87 | 0.75
SNRPA1 (small nuclear ribonucleoprotein polypeptide A') | 0.97 | 0.31
RPE (ribulose-5-phosphate-3-epimerase) | 1.17 | 1.08
SFT2D3 (SFT2 domain containing 3) | 1 | 0.8
SIGLEC5 (sialic acid binding Ig like lectin 5) | 1.12 | 0.9
TRAIP (TRAF interacting protein) | 0.99 | 0.96
TTC38 (tetratricopeptide repeat domain 38) | 1.01 | 0.83
HLA-DRB5 (major histocompatibility complex, class II, DR beta 5) | 1.11 | 0.69
LRRC56 (leucine rich repeat containing 56) | 1.03 | 1
MAN2A1 (mannosidase alpha class 2A member 1) | 1.04 | 0.79
GATAD1 (GATA zinc finger domain containing 1) | 0.97 | 0.7
PITPNA (phosphatidylinositol transfer protein alpha) | 0.95 | 0.92
ALG1L1P (ALG1 like 1, pseudogene) | 1.02 | 0.92
ARL4C (ARF like GTPase 4C) | 1.21 | 0.97
MSLN (mesothelin) | 1.33 | 0.44
RRAS2 (RAS related 2) | 1.29 | 0.85
SPNS3 | 1.14 | 0.66
CRYBB2 (crystallin beta B2) | 0.93 | 0.64
SLC23A1 | 0.77 | 0.89
NACC2 (NACC family member 2) | 0.98 | 0.53
IMMP2L (inner mitochondrial membrane peptidase subunit 2) | 1.21 | 0.87
PCDHB14 (protocadherin beta 14) | 1.33 | 1.1
ARL8B (ARF like GTPase 8B) | 1.08 | 0.8
AMACR (alpha-methylacyl-CoA racemase) | 0.99 | 0.88
LYZL1 (lysozyme like 1) | 1.07 | 1.07
PLEKHH1 (pleckstrin homology, MyTH4 and FERM domain containing H1) | 0.78 | 0.42
RASD1 (ras related dexamethasone induced 1) | 1.07 | 0.64
FBXW9 (F-box and WD repeat domain containing 9) | 1.01 | 0.78
SERPINA4 (serpin family A member 4) | 1.33 | 0.32
ACVR1 (activin A receptor type 1) | 0.77 | 0.58
SETD4 (SET domain containing 4) | 0.91 | 0.49
SLC16A5 | 1.28 | 0.82
KIF1B (kinesin family member 1B) | 1.31 | 1.18
VEPH1 (ventricular zone expressed PH domain containing 1) | 1.09 | 0.82
NDUFB9 (NADH:ubiquinone oxidoreductase subunit B9) | 0.75 | 0.69
MYO19 (myosin XIX) | 0.88 | 0.84
OSBP2 (oxysterol binding protein 2) | 0.8 | 0.7
AADAC (arylacetamide deacetylase) | 0.78 | 0.76
CCDC89 (coiled-coil domain containing 89) | 0.97 | 0.64
TCEAL7 (transcription elongation factor A like 7) | 0.84 | 0.54
PCDHB11 (protocadherin beta 11) | 1.15 | 0.92
CELF1 (CUGBP Elav-like family member 1) | 1.23 | 0.91
MSR1 (macrophage scavenger receptor 1) | 0.89 | 0.66
DCLRE1C (DNA cross-link repair 1C) | 0.82 | 0.82
HTR5A (5-hydroxytryptamine receptor 5A) | 0.85 | 0.87
GSR (glutathione-disulfide reductase) | 1.2 | 0.98
GATD1 (glutamine amidotransferase class 1 domain containing 1) | 0.89 | 0.57
GAL3ST3 (galactose-3-O-sulfotransferase 3) | 0.98 | 0.86

An excerpt from above, showing only “CDH1-null / parental viability ratio”.
ARL8B (ARF like GTPase 8B)	1.08
AMACR (alpha-methylacyl-CoA racemase)	0.99
LYZL1 (lysozyme like 1)	1.07
PLEKHH1 (pleckstrin homology, MyTH4 and FERM domain containing H1)	0.78
RASD1 (ras related dexamethasone induced 1)	1.07
